# Results deposited as PubChem BioAssay AID1224828 (NIAID, 2016).
# Screen: 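Regulators linking TLR4 signalling to p65 nuclear translocation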 (primary screen)
# System: mouse RAW264.7 G9 macrophage reporter cells (GFP-p65, Tnf promoter-mCherry)
# Reagent: siRNA pool against mouse genes, 100 nM
# Time to read-out: 2 days siRNA transfection, then 40 min LPS before fixation
# Treatment: LPS (Salmonella minnesota R595) at 10 ng/ml
# Measurement: 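Microscopy ratio of nuclear to perinuclear-ring GFP-p65 signal, scaled to the plate median; gene score is the average of two replicate robust z-scores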
# Reading the numbers: p65 translocation robust z-score: higher = more nuclear NF-kappaB p65 after LPS than the plate median; nuclear/cytoplasmic p65 ratio: higher = more nuclear NF-kappaB p65
# Active means: 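Called active when z exceeds 3.3 or falls under -1.56 (median of Tlr4 controls), giving activity score of at least 50; no calls for control wells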
# Calls: active = hit (p65 shift raised or lowered); inactive = no clear change
# This is a random part of about 17,000 reagents tested. Of all reagents, 762 (4.5%) were called active. 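Active calls include both raised and lowered p65 entry, mostly lowered; wells with fewer than 50 cells lack a z-score.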 Raw values vary from plate to plate and are shown uncorrected.
gene,p65 translocation robust z-score,"nuclear/cytoplasmic p65 ratio, rep 1","nuclear/cytoplasmic p65 ratio, rep 2",low cell count flag,Call
Egr1,-1.26,1.27,1.23,enough cells to score,inactive
Slc16a13,-1.05,1.26,1.21,enough cells to score,inactive
Usp14,0.61,1.53,1.65,enough cells to score,inactive
Bcar1,0.21,1.58,1.71,enough cells to score,inactive
Or2r3,0.7,1.41,1.35,enough cells to score,inactive
Nat10,1.26,1.8,1.87,enough cells to score,inactive
Naa25,-0.67,1.39,1.38,enough cells to score,inactive
Csl,-1.47,1.09,1.23,enough cells to score,inactive
Glg1,-0.62,1.38,1.27,enough cells to score,inactive
Cuedc1,0.2,1.46,1.55,enough cells to score,inactive
Mageb1,3.48,2.31,2.01,enough cells to score,active
Nectin2,-1.06,1.38,1.36,enough cells to score,inactive
Npc2,0.8,1.6,1.48,enough cells to score,inactive
Fundc2,,1.39,1.23,fewer than 50 cells per well; well left out of scoring,inactive
Or5d40,-0.3,1.66,1.49,enough cells to score,inactive
Vsig1,0.39,1.31,1.38,enough cells to score,inactive
Zbtb7a,0.07,1.6,1.44,enough cells to score,inactive
Fam221b,-1.99,1.04,1.05,enough cells to score,active
S100a11,1.32,1.72,1.59,enough cells to score,inactive
Ube2h,-0.07,1.5,1.5,enough cells to score,inactive
Ptpn13,-0.41,1.38,1.41,enough cells to score,inactive
Cbs,0.85,1.47,1.49,enough cells to score,inactive
B230206H07Rik,0.86,1.6,1.76,enough cells to score,inactive
Or51f5,-1.74,1.21,1.04,enough cells to score,active
Nlgn2,0.43,1.83,1.55,enough cells to score,inactive
2900092C05Rik,,1.16,1.1,fewer than 50 cells per well; well left out of scoring,inactive
Mrpl19,-0.04,1.82,1.55,enough cells to score,inactive
Nhp2,,1.3,0,fewer than 50 cells per well; well left out of scoring,inactive
Akr1c20,0.44,1.57,1.77,enough cells to score,inactive
Uck1,-2.32,1.36,1.06,enough cells to score,active
Or2a14,1.67,1.7,1.43,enough cells to score,inactive
Shisa5,,1.36,1.26,fewer than 50 cells per well; well left out of scoring,inactive
Sephs1,0.44,1.57,1.43,enough cells to score,inactive
Pmm1,,1.21,1.31,fewer than 50 cells per well; well left out of scoring,inactive
Pef1,-0.86,1.3,1.33,enough cells to score,inactive
Psmb5,-0.24,1.29,1.24,enough cells to score,inactive
Tnfaip3,1.52,1.69,1.77,enough cells to score,inactive
Rfxap,-1.43,1.19,1.31,enough cells to score,inactive
Slc1a6,,1.61,1.48,fewer than 50 cells per well; well left out of scoring,inactive
Twist2,,1.05,0.851,fewer than 50 cells per well; well left out of scoring,inactive
Ccser1,-0.11,1.27,1.53,enough cells to score,inactive
Trim67,-2.75,1.31,1.13,enough cells to score,active
Slc16a7,0.43,1.54,1.31,enough cells to score,inactive
Cd55,-0.92,1.37,1.23,enough cells to score,inactive
Or52a24,,1.72,1.58,fewer than 50 cells per well; well left out of scoring,inactive
Anks3,,1.15,1.28,fewer than 50 cells per well; well left out of scoring,inactive
Try4,-0.96,1.27,1.11,enough cells to score,inactive
Nudt9,0.68,1.88,1.58,enough cells to score,inactive
Plekhg3,-0.23,1.54,1.81,enough cells to score,inactive
Itk,-1.15,1.82,1.23,enough cells to score,inactive
Ssmem1,,1.71,1.94,fewer than 50 cells per well; well left out of scoring,inactive
Nudt1,-0.14,1.3,1.51,enough cells to score,inactive
Msto1,-1.34,1.43,1.56,enough cells to score,inactive
Prkci,-0.04,1.74,1.33,enough cells to score,inactive
F12,-0.35,1.29,1.44,enough cells to score,inactive
Cryge,-0.35,1.44,1.82,enough cells to score,inactive
Nlrp9a,-0.15,1.42,1.32,enough cells to score,inactive
Rassf2,0.07,1.54,1.34,enough cells to score,inactive
Stat5a,1.61,1.84,1.73,enough cells to score,inactive

Only “nuclear/cytoplasmic p65 ratio, rep 2”, for 8 of the entries above:
Glg1: 1.27
Cuedc1: 1.55
Mageb1: 2.01
Nectin2: 1.36
Npc2: 1.48
Fundc2: 1.23
Or5d40: 1.49
Vsig1: 1.38
